Substitutions are numbered along the chain they refer to. In names and notes the source's numbering stands. These are yes or no findings as the source states them, for the method shown. Some results given as binding are weak or reduced against the parent protein; the word gives no strength.

This test concerns the target T1, endogenous wild-type PLB of rat cardiac myocytes (rat) (UniProt P61016).
T1 sequence (looked up): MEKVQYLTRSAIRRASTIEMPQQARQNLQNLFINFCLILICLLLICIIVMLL
Description: Western blot of infected myocytes, altered pentamer band pattern. On the technique in general: A western blot detects proteins with antibodies after separation by electrophoresis.

B1: K3E/R14E double point mutation of PLB expressed from a recombinant adenovirus (other)
chain: T1 sequence (looked up) with K3E, R14E, N27K
notes: ID
Consider B1, for which the binding result is reported as “binds”.

The values are drawn from patent publication US20040121942A1 (University of California, published 2004).
